# Reference: the supplement of paper PMC9135407
# “And” between values parts separate entries of the source, which are not always exact repeats. Identical values can stand only once. Counter-ions that a name gives are not always drawn. ± gives the standard deviation of the averaged measurements. This is one part of the list. Plates or batches differ in their baseline, so values are only roughly comparable.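 Culture-activated primary human stellate myofibroblasts, where regained lipid droplets signal inactivation. Value: share of Hoechst-counted cells above a per-plate Bodipy cutoff, in duplicate wells, with DMSO negative and nortriptyline positive controls on each plate. Hits: a control-normalized score above the plate's top-tenth-percentile nortriptyline wells, or one of a plate's three best wells. Final well concentrations are not given.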
# System: primary human hepatic stellate cells (donor 1)
# Experiment: percent Bodipy-positive cells; higher = more lipid droplet accumulation
# Details: 48 h
# [1] = library stock concentration: 10 mM
# [2] = library stock concentration: 5 mM
# [3] = library stock concentration: 3.33 mM
# [4] = library stock concentration: 1 mM
# [5] = library stock concentration: 80 uM
# [6] = library stock concentration: 400 uM
# [7] = library stock concentration: 2 mM
smiles,measurement,setting,value
COc1ccc(CN(CCN(C)C)c2ccccn2)cc1 [Mepyramine maleate],percent Bodipy-positive cells,library stock concentration: 7 mM,16 ± 4.2%
same,percent Bodipy-positive cells,[1],25.8 ± 3%
COc1ccc(CN(CCN(C)C)c2ccccn2)cc1 [Pyrilamine maleate],percent Bodipy-positive cells,,45.7 ± 8.7%
same,percent Bodipy-positive cells,[2],33.2 ± 8%
COc1cc(/C=C/C(=O)N2CCN(CC(=O)N3CCCC3)CC2)cc(OC)c1OC [Cinepazide maleate],percent Bodipy-positive cells,[3],12.1 ± 0.91%
same,percent Bodipy-positive cells,[1],11.8 ± 3.1%
CCCCC[C@H](O)/C=C/[C@@H]1[C@@H](C/C=C\CCCC(=O)N(CC)CC)[C@@H](O)C[C@H]1O [Prostaglandin F2.alpha. diethyl amide],percent Bodipy-positive cells,[4],9.82 ± 2.1%
O=C(Nc1ccc(OC(F)(F)F)cc1)c1sccc1NCc1ccnc2ccccc12,percent Bodipy-positive cells,[5],8.92 ± 2.9%
same,percent Bodipy-positive cells,[6],10.11 ± 0.045%
same,percent Bodipy-positive cells,[7],16.5 ± 10%
same,percent Bodipy-positive cells,[3],22.1 ± 8.7%
same,percent Bodipy-positive cells,[1],23.6% and 18.6%
Cn1c(=O)cc(N2CCC[C@@H](N)C2)n(Cc2cc(F)ccc2C#N)c1=O [Trelagliptin],percent Bodipy-positive cells,[3],25.75 ± 0.2%
same,percent Bodipy-positive cells,[1],36.1 ± 6.1%
"CN(C)CCC(c1ccc(Cl)cc1)c1ccccn1 (single isomer, unassigned; (+)) [(+)-Chlorpheniramine maleate]",percent Bodipy-positive cells,[1],83.29 ± 0.34%
COc1cc2nc(N3CCCN(C)CC3)nc(NC3CCN(Cc4ccccc4)CC3)c2cc1OC.Cl.Cl.Cl.O,percent Bodipy-positive cells,[4],99.81 ± 0.27%
O=C(N[C@@H](Cc1ccccc1)C(=O)CCl)OCc1ccccc1 [Z-L-Phe chloromethyl ketone],percent Bodipy-positive cells,[1],97.57 ± 0.53%
Cc1cc2c(cc1Cl)N(C(=O)Nc1ccc(Oc3cccnc3C)nc1)CC2,percent Bodipy-positive cells,[1],89.2 ± 9.2%
Cc1scc2c1N(C(=O)CN1CCN(C)CC1)c1ccccc1NC2=O [Telenzepine dihydrochloride],percent Bodipy-positive cells,,26.8 ± 2.1%
same,percent Bodipy-positive cells,[1],25.8% and 9.65%
Cc1scc2c1N(C(=O)CN1CCN(C)CC1)c1ccccc1NC2=O [Telenzepine hydrochloride],percent Bodipy-positive cells,[1],39.1 ± 5.2%
Cc1scc2c1N(C(=O)CN1CCN(C)CC1)c1ccccc1NC2=O [Telenzepine 2HCl],percent Bodipy-positive cells,library stock concentration: 5.4 mM,9.81 ± 0.55%
C=C1c2cccc(O)c2C(=O)C2=C(O)[C@]3(O)C(=O)C(C(N)=O)=C(O)[C@@H](N(C)C)[C@@H]3[C@@H](O)[C@H]12 [Methacycline hydrochloride],percent Bodipy-positive cells,,5.25 ± 0.28%
same,percent Bodipy-positive cells,[1],18.8 ± 4.3%
C#CCOc1ccccc1CCCCCC(=O)NS(C)(=O)=O,percent Bodipy-positive cells,[4],7.72 ± 0.094%
c1ccc(C2CN3CCSC3=N2)cc1 (configuration not stated) [Tetramisole hydrochloride],percent Bodipy-positive cells,,31.3 ± 2.7%
same,percent Bodipy-positive cells,[1],17.1 ± 6%
c1ccc(C2CN3CCSC3=N2)cc1 (configuration not stated),percent Bodipy-positive cells,[1],29.2 ± 2.3%
COc1cc2cc3c4cc(OC)c(OC)cc4cc[n+]3c(C)c2cc1OC [Coralyne chloride],percent Bodipy-positive cells,[1],19 ± 2.7%
COc1cc2cc3c4cc(OC)c(OC)cc4cc[n+]3c(C)c2cc1OC [Coralyne chloride hydrate],percent Bodipy-positive cells,,20.1 ± 3.1%
Cn1c(=O)c2nc[nH]c2n(C)c1=O [Theophylline],percent Bodipy-positive cells,[1],24.2% and 13.1% and 30%
Cn1c(=O)c2nc[nH]c2n(C)c1=O [Theophylline monohydrate],percent Bodipy-positive cells,,9.5 ± 7%
CC(C)(C)NC[C@H](O)COc1nsnc1N1CCOCC1 [S(-)-Timolol maleate],percent Bodipy-positive cells,[1],14.6% and 34%
CC(C)(C)NC[C@H](O)COc1nsnc1N1CCOCC1 [Timolol Maleate],percent Bodipy-positive cells,[3],14.5 ± 5.2%
same,percent Bodipy-positive cells,[1],23.8 ± 9.3%
CC(C)(C)NC[C@H](O)COc1nsnc1N1CCOCC1 [(S)-Timolol maleate],percent Bodipy-positive cells,[1],6.62 ± 2.1%
CC(C)(C)NC[C@H](O)COc1nsnc1N1CCOCC1 [Timolol maleate (s)],percent Bodipy-positive cells,library stock concentration: 6.3 mM,10.8 ± 4.5%
CC(C)(C)NC[C@H](O)COc1nsnc1N1CCOCC1 [Timolol maleate salt],percent Bodipy-positive cells,,10.2 ± 3.7%
CC(C)(C)NC[C@H](O)COc1nsnc1N1CCOCC1 [Timolol maleate],percent Bodipy-positive cells,[1],16 ± 2.6%
C[C@]12CCC(=O)C=C1CC[C@@H]1[C@@H]2[C@@H](O)C[C@@]2(C)[C@H]1CC[C@]2(O)C(=O)COC(=O)CCC(=O)O,percent Bodipy-positive cells,[1],17.8 ± 0.41%
C[C@]12CCC(=O)C=C1CC[C@@H]1[C@@H]2[C@@H](O)C[C@@]2(C)[C@H]1CC[C@]2(O)C(=O)COC(=O)CCC(=O)O [Hydrocortisone hemisuccinate],percent Bodipy-positive cells,[1],10.2 ± 2.1%
Cc1ccc(C(=O)Nc2ccc(CN3CCN(C)CC3)c(C(F)(F)F)c2)cc1C#Cc1cnc2cccnn12,percent Bodipy-positive cells,[5],50.7 ± 1.3%
same,percent Bodipy-positive cells,[1],100%
O=C(Nc1cccc2c(=O)cc(-c3nnn[nH]3)oc12)c1ccc(OCCCCc2ccccc2)cc1 [Pranlukast],percent Bodipy-positive cells,[4],15.9 ± 12%
same,percent Bodipy-positive cells,[3],7.95 ± 4.2%
same,percent Bodipy-positive cells,[1],18.1 ± 5%
c1ccc2c(c1)CCC[C@H]2Nc1nc2ccccc2[nH]1 [NS8593 hydrochloride],percent Bodipy-positive cells,[1],61.5 ± 2.6%
NCCCC[C@H](N[C@@H](CCc1ccccc1)C(=O)O)C(=O)N1CCC[C@H]1C(=O)O [Lisinopril],percent Bodipy-positive cells,,34.9 ± 16%
same,percent Bodipy-positive cells,library stock concentration: 4.9 mM,14.4% and 12.1%
same,percent Bodipy-positive cells,[1],16.6 ± 5.4%
NC1(C(=O)O)CCCC1 [Cycloleucine],percent Bodipy-positive cells,[1],40.6 ± 17%
COc1ccc(NC(=O)c2ccc(-c3ccc(-c4noc(C)n4)cc3C)cc2)cc1OCCN(C)C,percent Bodipy-positive cells,[1],95.5 ± 2.1%
FC(F)(F)c1ccccc1-n1ccnc1 [1-[2-(Trifluoromethyl)phenyl]imidazole],percent Bodipy-positive cells,[1],13.1 ± 4.5%
O=C(c1cccc(Cl)c1F)N1CCN(Cc2cccc(Nc3nccs3)n2)CC1,percent Bodipy-positive cells,[3],14.9 ± 1.2%
same,percent Bodipy-positive cells,[1],68.9 ± 11%
CC(C)[C@H]1C(=O)N[C@@H](CCCNC(=N)N)C(=O)NCC(=O)N[C@@H](CC(=O)O)C(=O)N[C@H](Cc2ccccc2)C(=O)N1C [Cilengitide],percent Bodipy-positive cells,[3],29.8 ± 3.1%
same,percent Bodipy-positive cells,[1],77 ± 7.8%
CSc1ccc2c(c1)C(N1CCN(C)CC1)Cc1ccccc1S2.O=C(O)/C=C\C(=O)O (configuration not stated) [Methiothepin maleate],percent Bodipy-positive cells,[1],94.461 ± 0.055%
CCCCOC(=O)NS(=O)(=O)c1sc(CC(C)C)cc1-c1ccc(Cn2c(CC)nc3c(C)cc(C)nc32)cc1,percent Bodipy-positive cells,[1],50 ± 3%
Cl.C(=C\CCNC)(/c1c(cccc1)CC2)\c3c2cccc3 [Nortriptyline hydrochloride],percent Bodipy-positive cells,,88.4 ± 4.2%
O=C(Cc1cccs1)N[C@@H]1C(=O)N2C(C(=O)[O-])=C(C[n+]3ccccc3)CS[C@H]12 [Cephaloridine],percent Bodipy-positive cells,[1],34.7 ± 12%
CO/N=C(\C(=O)N[C@@H]1C(=O)N2C(C(=O)O)=C(CSc3nc(=O)c(O)nn3C)CS[C@H]12)c1csc(N)n1 [Ceftriaxone sodium trihydrate],percent Bodipy-positive cells,library stock concentration: 3.1 mM,16 ± 2.4%
same,percent Bodipy-positive cells,[1],40.5% and 53.3%
CO/N=C(\C(=O)N[C@@H]1C(=O)N2C(C(=O)O)=C(CSc3nc(=O)c(O)nn3C)CS[C@H]12)c1csc(N)n1 [Ceftriaxone sodium],percent Bodipy-positive cells,[1],42.8 ± 9.9%
Oc1ccccc1O [Pyrocatechol],percent Bodipy-positive cells,[1],32.8 ± 2.2%
COc1cc(OC)c2c(=O)[nH]c(-c3cc(C)c(OCCO)c(C)c3)nc2c1,percent Bodipy-positive cells,[3],26.3 ± 4.7%
same,percent Bodipy-positive cells,[1],49.1 ± 3.2%
COc1cccc(NC(=O)/C=C/c2ccc(Cl)cc2)c1,percent Bodipy-positive cells,[1],39.8 ± 1.5%
CCOC(=O)OC(C)OC(=O)[C@@H]1N2C(=O)[C@@H](NC(=O)[C@H](N)c3ccccc3)[C@H]2SC1(C)C (some centres not stated) [Bacampicillin hydrochloride],percent Bodipy-positive cells,,29 ± 6.3%
same,percent Bodipy-positive cells,library stock concentration: 4 mM,22.6 ± 2.8%
"CCCCC/C=C\C/C=C\C/C=C\CC1OC1CCCC(=O)O (configuration not stated) [5,6-Epoxyeicosatrienoic acid]",percent Bodipy-positive cells,library stock concentration: 100 uM,12.4 ± 7.9%
CC(C)CCCCCCC/C=C/C(=O)O [trans-.DELTA.2-11-methyl-Dodecenoic Acid],percent Bodipy-positive cells,[4],9.89 ± 1.2%
NCC(O)c1ccc(O)c(O)c1 (racemic),percent Bodipy-positive cells,[1],30.7 ± 3.6%
O=C1CCC(c2ccc(-n3ccnc3)cc2)=NN1 [Imazodan],percent Bodipy-positive cells,[1],42.6 ± 30%
Cc1nc(NC(=O)N2CCC[C@H]2C(N)=O)sc1-c1csc(C(C)(C)C)n1,percent Bodipy-positive cells,[5],5.99 ± 1.7%
same,percent Bodipy-positive cells,[6],8.028 ± 0.025%
same,percent Bodipy-positive cells,[7],10.8 ± 8.1%
same,percent Bodipy-positive cells,[3],7.18 ± 2.6%
same,percent Bodipy-positive cells,[1],14.9% and 10.8%
COC1=C(OC)C(=O)C(CCCCCCCCCCO)=C(C)C1=O [Idebenone],percent Bodipy-positive cells,[3],7.92 ± 1.8%
same,percent Bodipy-positive cells,library stock concentration: 5.9 mM,7.52 ± 0.41%
same,percent Bodipy-positive cells,[1],13.4 ± 2.1%
O=C(NCCCNc1nc(Nc2cccc(NC(=O)N3CCCC3)c2)ncc1I)c1cccs1,percent Bodipy-positive cells,[1],91.79 ± 0.42%
CCNC(=O)N1CCN(CCCC(c2ccc(F)cc2)c2ccc(F)cc2)CC1 [Amperozide hydrochloride],percent Bodipy-positive cells,[1],78.9 ± 6.9%
Fc1ccc(C(OCCCc2cnc[nH]2)c2ccc(F)cc2)cc1,percent Bodipy-positive cells,[1],80.1 ± 1%
C=CC(=O)Nc1cc(NC(=O)c2ccc(C)c(NC(=O)c3ccno3)c2)cc(C(F)(F)F)c1,percent Bodipy-positive cells,[5],29.7 ± 36%
same,percent Bodipy-positive cells,[6],13.4 ± 5.7%
same,percent Bodipy-positive cells,[7],10.5 ± 4.9%
same,percent Bodipy-positive cells,[1],36.6 ± 3.7%
Cn1c(=O)c(-c2c(Cl)cccc2Cl)cc2cnc(Nc3ccc(N4CCOCC4)cc3)nc21,percent Bodipy-positive cells,[1],25.5 ± 2%
Cn1cc(-c2ccc(F)c(C(F)(F)F)c2)nc1C1CCN(c2ncnc3[nH]ncc23)CC1,percent Bodipy-positive cells,[5],3.91 ± 1.9%
same,percent Bodipy-positive cells,[6],3.75 ± 2.4%
same,percent Bodipy-positive cells,[7],14 ± 3.4%
same,percent Bodipy-positive cells,[1],36.6 ± 6.9%
O=C(Nc1c[nH]nc1-c1nc2ccc(CN3CCOCC3)cc2[nH]1)NC1CC1,percent Bodipy-positive cells,[5],63 ± 1.4%
same,percent Bodipy-positive cells,[6],77.7 ± 4.4%
same,percent Bodipy-positive cells,[7],61% and 83.2%
same,percent Bodipy-positive cells,[3],81.6 ± 6%
same,percent Bodipy-positive cells,[1],96.3% and 85.7% and 94.9%
CCOC(=O)[C@H](CCc1ccccc1)N[C@H]1CCc2ccccc2N(CC(=O)O)C1=O,percent Bodipy-positive cells,[1],9.441 ± 0.055%
CCOC(=O)[C@H](CCc1ccccc1)N[C@H]1CCc2ccccc2N(CC(=O)O)C1=O [Benazepril HCl],percent Bodipy-positive cells,[3],7.02 ± 1.7%
same,percent Bodipy-positive cells,[1],15.6 ± 3.3%
CNC(=O)[C@@H](Cc1ccccc1)N(C)C(=O)[C@@H](Cc1ccc2ccccc2c1)N(C)C(=O)/C=C/CC(C)(C)N.CNC(=O)[C@@H](Cc1ccccc1)N(C)C(=O)[C@@H](Cc1ccc2ccccc2c1)N(C)C(=O)/C=C/CC(C)(C)N.O=C(O)/C=C/C(=O)O [Tabimorelin],percent Bodipy-positive cells,[1],82.6 ± 5.3%
C=C1CC[C@H](O)C/C1=C/C=C1\CCC[C@]2(C)[C@@H]([C@H](C)CCCC(C)(C)O)CC[C@@H]12 [Calcifediol],percent Bodipy-positive cells,[3],6.66 ± 0.81%
same,percent Bodipy-positive cells,[2],5.57 ± 0.44%
same,percent Bodipy-positive cells,[1],32.2 ± 5.7%
CC(C)CC(=O)Nc1n[nH]c2c1CN(C(=O)C1CCN(C)CC1)C2(C)C,percent Bodipy-positive cells,[5],12.4 ± 2.7%
same,percent Bodipy-positive cells,[6],36.8 ± 8%
same,percent Bodipy-positive cells,[7],32.8 ± 3.5%
same,percent Bodipy-positive cells,[3],49.1 ± 1.2%
same,percent Bodipy-positive cells,[1],60.1% and 42.4%
O=C(NCCS(=O)(=O)c1ccc(C(F)(F)F)cn1)c1ccc(Cl)cc1,percent Bodipy-positive cells,[3],24.6 ± 2.1%
same,percent Bodipy-positive cells,[1],52.6 ± 27%
OC(c1ccccc1)C1CCN(CCc2ccccc2)CC1 (configuration not stated),percent Bodipy-positive cells,[1],16.2 ± 1.9%
O=C([O-])[C@H]1/C(=C/CO)O[C@@H]2CC(=O)N21.[Li+] [Clavulanate lithium],percent Bodipy-positive cells,library stock concentration: 9.7 mM,12.5 ± 5.4%
CC(=O)N[C@@H](CC(C)C)C(=O)O [N-Acetyl-L-leucine],percent Bodipy-positive cells,,7.46 ± 3.8%
CC(=O)N[C@@H](CC(C)C)C(=O)O [Acetyl-l-leucine],percent Bodipy-positive cells,[1],17.2 ± 10%
